For 1 substance, binding results are on record in publication PMC7419509.

The chains behind the UniProt entries cited, without tags or fusion partners.
UniProt Q6R327: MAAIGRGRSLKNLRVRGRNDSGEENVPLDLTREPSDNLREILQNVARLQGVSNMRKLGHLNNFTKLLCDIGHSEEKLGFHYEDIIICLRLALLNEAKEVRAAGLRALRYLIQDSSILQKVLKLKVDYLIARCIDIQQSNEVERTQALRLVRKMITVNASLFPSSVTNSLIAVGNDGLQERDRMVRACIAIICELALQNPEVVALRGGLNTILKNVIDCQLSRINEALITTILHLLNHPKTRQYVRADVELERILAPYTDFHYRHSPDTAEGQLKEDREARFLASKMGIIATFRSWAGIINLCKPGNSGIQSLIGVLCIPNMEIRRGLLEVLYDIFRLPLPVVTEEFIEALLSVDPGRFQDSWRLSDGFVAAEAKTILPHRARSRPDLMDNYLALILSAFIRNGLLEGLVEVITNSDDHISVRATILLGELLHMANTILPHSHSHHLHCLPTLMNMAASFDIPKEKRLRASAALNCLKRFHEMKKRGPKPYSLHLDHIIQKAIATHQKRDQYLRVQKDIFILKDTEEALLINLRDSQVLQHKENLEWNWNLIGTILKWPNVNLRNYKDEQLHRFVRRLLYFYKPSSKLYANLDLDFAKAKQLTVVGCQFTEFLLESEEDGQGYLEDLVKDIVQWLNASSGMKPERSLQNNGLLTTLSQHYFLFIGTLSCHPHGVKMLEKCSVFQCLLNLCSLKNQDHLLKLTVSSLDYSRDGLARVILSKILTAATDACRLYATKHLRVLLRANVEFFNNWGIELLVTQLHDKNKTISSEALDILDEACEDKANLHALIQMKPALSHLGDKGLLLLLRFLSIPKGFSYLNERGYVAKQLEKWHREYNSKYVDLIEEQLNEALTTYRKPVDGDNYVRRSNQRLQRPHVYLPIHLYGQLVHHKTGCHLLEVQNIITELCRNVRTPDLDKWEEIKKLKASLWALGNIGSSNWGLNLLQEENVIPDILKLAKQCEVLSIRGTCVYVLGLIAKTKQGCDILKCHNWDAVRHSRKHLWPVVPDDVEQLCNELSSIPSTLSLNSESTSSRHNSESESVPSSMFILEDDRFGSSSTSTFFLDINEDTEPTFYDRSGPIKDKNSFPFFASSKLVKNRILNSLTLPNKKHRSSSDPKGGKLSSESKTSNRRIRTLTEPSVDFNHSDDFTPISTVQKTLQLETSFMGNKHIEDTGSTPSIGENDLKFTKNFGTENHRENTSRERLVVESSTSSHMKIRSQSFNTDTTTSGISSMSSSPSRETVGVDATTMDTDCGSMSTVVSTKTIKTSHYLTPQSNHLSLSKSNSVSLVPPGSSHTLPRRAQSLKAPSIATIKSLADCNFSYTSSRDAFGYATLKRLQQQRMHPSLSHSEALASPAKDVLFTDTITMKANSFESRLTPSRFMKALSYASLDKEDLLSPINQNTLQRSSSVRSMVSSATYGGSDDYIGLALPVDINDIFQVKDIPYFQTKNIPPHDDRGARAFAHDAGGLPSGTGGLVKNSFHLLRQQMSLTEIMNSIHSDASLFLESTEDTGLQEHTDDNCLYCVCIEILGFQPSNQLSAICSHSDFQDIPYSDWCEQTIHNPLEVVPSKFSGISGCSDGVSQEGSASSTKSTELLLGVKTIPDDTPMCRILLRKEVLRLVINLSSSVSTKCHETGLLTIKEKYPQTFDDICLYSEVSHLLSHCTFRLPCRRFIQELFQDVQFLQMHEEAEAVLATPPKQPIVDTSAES

These are yes or no findings as the source states them, for the method shown. Binding seen in cells or lysates may run through a third protein. A yes stands for co-enrichment or nearness to the bait. Other partners may have been found.

The test addresses RICTOR (human (endogenous in HT1080 and HeLa)) (UniProt Q6R327). Briefly: affinity purification with mass spectrometry; immunoprecipitation with anti-RICTOR antibody, binding proteins analysed by LC-MS/MS.

On to TMBIM6 (from UniProt P55061 1-237), for which the binding result is reported as “binds”.
